Earlier results, collected in patent US20220288054A1, “COMPOSITIONS AND METHODS TO TREAT NON-ALCOHOLIC FATTY LIVER DISEASES (NAFLD)” (Coherus Biosciences, Inc., priority 2019, published 2022).
At least one compound was matched to its structure with a doubt left.

Conditions: 25 mg daily dose

CC[C@H]1[C@@H](O)[C@@H]2[C@H](CC[C@]3(C)[C@@H]([C@H](C)CCC(=O)O)CC[C@@H]23)[C@@]2(C)CC[C@@H](O)C[C@@H]12 [OCA, Obeticholic acid]
primary endpoint: fibrosis improvement without worsening of NASH at 18 months: achieved
